For assay [1], the target named is T1, Neuregulin-1 (rat (endogenous in primary hippocampal neurons)) (UniProt P43322).
T1 sequence: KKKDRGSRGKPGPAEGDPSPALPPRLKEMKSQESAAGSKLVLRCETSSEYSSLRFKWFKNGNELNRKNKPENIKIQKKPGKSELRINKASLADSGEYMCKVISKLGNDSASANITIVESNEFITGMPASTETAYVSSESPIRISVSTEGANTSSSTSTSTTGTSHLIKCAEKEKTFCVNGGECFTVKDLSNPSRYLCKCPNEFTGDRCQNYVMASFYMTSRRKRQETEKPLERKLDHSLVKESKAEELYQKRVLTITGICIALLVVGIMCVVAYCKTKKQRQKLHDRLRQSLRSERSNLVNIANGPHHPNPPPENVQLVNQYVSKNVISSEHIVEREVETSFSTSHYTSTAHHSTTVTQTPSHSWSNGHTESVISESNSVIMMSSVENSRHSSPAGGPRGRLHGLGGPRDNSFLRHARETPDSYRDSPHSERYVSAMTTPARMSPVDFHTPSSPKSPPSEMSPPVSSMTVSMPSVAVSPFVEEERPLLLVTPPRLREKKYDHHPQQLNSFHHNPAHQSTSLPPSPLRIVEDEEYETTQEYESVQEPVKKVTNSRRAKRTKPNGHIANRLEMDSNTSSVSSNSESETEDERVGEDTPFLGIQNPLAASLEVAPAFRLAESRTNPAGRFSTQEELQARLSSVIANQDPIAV
Kind of assay: co-IP.

Protein sequences, listed by entry. Tags and fused reporters are not part of them. Residues count along the entry.
UniProt Q62956, residues 26-1308: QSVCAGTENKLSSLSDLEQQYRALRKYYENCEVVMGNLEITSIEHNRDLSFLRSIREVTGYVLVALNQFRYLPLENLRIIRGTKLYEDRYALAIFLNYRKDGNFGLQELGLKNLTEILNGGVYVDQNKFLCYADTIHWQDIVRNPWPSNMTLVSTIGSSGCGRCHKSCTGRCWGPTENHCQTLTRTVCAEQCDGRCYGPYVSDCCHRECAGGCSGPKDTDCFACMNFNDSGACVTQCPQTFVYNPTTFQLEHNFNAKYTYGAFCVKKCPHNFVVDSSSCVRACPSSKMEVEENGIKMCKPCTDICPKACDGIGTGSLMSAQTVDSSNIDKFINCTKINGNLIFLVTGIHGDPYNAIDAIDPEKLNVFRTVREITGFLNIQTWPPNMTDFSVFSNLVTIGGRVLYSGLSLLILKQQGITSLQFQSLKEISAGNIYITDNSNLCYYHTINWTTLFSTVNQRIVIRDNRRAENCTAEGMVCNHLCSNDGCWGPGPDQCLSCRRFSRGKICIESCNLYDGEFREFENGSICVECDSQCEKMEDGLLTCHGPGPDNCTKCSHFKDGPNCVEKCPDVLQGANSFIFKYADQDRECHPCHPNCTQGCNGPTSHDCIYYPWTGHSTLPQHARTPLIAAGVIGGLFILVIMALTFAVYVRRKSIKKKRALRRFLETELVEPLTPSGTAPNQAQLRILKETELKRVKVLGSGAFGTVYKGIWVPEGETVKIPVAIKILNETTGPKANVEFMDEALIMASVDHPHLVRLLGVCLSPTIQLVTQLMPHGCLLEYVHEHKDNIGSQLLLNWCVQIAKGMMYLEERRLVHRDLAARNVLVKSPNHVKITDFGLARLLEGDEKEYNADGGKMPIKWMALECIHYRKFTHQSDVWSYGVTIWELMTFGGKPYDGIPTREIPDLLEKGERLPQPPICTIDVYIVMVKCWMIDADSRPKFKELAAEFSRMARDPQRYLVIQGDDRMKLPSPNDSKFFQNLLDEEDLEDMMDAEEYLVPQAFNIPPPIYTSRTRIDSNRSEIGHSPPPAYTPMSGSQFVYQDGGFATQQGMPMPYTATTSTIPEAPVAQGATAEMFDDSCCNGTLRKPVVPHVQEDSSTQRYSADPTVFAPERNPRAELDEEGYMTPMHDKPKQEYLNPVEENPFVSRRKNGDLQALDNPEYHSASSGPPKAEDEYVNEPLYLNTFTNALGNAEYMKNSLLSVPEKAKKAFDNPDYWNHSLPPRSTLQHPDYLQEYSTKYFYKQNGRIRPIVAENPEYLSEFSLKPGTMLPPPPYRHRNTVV

In assay [2] the target is ErbB4 (rat (endogenous in primary hippocampal neurons)) (UniProt Q62956). Kind of assay: co-IP.

The record followed here is doi:10.1101/869503.

These are yes or no findings as the source states them, for the method shown. Binding seen in cells or lysates may run through a third protein. Some entries that bind do so weakly or less than the wild type.

Consider “ErbB4 (from UniProt Q62956 26-1308) (receptor)”, for which the binding entry in assay [1] is listed as “binds”.

B1: Neuregulin-1 (ligand, UniProt P43322 14-662)
chain: T1 sequence
As for B1, the binding result in assay [2] is listed as “binds”.
